Assay results published in the supplement of paper PMC10849652.
The list shows a part of the results.

Protein sequences, listed by entry. Tags and fused reporters are not part of them. Lines headed by an entry give the natural chain unless they say otherwise; changes in a name come on top.
UniProt P04920: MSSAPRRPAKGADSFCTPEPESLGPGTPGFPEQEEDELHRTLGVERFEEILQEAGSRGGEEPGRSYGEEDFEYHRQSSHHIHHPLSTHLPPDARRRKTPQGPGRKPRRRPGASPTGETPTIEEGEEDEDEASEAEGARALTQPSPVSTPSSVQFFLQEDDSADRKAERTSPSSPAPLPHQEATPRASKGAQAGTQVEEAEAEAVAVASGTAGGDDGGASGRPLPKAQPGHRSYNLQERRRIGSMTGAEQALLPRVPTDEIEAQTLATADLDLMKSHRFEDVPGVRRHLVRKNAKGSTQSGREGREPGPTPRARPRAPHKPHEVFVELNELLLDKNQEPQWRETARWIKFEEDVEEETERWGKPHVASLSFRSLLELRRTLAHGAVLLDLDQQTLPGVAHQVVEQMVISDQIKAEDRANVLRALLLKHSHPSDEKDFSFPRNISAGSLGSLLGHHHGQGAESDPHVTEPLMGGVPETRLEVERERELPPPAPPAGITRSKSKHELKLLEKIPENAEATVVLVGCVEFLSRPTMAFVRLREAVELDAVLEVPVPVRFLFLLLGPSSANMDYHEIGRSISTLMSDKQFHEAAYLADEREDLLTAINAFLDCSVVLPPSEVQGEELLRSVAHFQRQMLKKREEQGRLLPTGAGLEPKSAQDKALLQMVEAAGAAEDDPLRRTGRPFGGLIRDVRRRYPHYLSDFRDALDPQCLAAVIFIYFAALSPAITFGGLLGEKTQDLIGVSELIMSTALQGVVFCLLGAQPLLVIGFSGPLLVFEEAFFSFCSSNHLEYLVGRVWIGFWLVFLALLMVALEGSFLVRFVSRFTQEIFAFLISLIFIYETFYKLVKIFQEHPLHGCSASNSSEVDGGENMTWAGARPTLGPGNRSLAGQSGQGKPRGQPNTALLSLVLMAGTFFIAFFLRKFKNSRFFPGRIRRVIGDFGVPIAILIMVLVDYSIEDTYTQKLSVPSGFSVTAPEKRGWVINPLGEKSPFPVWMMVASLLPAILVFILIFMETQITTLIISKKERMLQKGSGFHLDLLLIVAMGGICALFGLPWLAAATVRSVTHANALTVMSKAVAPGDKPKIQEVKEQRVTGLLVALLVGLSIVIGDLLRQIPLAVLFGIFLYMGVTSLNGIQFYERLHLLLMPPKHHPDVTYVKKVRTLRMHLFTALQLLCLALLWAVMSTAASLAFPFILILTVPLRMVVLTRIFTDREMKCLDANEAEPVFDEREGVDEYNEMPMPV
UniProt Q8N697: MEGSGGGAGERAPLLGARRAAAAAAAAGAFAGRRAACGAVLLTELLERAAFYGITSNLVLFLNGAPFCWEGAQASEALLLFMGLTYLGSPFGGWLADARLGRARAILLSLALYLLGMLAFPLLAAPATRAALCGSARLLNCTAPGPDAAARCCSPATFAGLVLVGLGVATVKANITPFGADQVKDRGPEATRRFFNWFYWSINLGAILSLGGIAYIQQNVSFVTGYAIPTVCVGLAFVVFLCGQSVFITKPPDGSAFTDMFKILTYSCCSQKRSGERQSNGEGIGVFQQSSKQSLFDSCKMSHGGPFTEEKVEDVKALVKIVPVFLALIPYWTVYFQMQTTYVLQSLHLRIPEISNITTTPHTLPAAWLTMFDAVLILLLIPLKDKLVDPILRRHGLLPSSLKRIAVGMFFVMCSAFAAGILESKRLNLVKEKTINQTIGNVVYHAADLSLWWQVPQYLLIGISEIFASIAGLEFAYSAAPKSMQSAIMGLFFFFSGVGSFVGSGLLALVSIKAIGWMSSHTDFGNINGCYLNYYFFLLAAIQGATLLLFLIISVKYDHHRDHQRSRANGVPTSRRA
UniProt Q6P1M0: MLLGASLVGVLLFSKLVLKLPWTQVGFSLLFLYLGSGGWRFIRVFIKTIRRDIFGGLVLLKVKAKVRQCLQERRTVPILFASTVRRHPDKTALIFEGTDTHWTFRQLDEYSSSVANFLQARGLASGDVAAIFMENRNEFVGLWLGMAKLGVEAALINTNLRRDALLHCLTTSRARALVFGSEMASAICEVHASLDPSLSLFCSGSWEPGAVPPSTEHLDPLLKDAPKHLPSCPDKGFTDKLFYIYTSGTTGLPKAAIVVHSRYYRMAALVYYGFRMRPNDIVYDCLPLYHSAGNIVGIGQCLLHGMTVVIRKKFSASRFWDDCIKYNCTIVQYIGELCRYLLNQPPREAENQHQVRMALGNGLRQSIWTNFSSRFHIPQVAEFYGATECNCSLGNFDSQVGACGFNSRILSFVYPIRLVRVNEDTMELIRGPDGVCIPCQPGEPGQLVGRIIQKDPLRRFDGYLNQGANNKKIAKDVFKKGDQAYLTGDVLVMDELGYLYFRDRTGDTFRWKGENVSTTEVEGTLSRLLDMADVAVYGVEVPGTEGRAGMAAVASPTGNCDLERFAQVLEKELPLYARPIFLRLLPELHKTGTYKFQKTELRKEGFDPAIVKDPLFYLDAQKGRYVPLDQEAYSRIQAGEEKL
UniProt Q9BXP2: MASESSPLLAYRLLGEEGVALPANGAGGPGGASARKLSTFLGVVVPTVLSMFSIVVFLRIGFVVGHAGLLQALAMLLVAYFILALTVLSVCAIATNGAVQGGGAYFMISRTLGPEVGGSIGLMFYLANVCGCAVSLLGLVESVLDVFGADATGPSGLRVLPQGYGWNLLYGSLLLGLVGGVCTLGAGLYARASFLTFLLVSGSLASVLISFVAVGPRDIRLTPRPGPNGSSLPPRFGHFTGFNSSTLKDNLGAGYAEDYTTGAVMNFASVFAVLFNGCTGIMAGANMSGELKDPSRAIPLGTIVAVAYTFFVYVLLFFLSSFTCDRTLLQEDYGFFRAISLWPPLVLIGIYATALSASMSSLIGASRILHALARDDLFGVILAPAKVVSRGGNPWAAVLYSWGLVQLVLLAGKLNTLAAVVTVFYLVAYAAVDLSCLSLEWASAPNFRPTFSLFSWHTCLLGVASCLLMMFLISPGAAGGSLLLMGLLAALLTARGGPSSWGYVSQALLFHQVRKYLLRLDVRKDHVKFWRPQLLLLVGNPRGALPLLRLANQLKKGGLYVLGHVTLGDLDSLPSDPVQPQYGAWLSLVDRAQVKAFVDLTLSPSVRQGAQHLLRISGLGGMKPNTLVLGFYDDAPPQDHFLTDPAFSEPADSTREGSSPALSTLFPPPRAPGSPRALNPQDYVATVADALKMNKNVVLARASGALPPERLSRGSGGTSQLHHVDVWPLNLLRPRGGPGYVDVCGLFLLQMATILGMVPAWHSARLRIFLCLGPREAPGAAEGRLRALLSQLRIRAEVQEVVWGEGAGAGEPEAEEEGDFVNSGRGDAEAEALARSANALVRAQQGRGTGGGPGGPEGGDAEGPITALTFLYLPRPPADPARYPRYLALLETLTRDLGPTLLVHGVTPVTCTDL
UniProt Q8N1S5: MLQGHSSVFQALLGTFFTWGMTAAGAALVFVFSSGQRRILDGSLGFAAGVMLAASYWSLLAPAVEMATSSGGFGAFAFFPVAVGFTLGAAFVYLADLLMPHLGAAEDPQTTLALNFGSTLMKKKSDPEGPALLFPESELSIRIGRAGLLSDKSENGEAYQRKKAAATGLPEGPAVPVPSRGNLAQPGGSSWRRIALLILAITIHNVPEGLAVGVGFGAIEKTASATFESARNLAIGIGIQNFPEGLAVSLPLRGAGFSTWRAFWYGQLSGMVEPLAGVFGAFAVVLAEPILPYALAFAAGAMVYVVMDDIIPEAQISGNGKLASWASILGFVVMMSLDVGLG
UniProt Q96H78: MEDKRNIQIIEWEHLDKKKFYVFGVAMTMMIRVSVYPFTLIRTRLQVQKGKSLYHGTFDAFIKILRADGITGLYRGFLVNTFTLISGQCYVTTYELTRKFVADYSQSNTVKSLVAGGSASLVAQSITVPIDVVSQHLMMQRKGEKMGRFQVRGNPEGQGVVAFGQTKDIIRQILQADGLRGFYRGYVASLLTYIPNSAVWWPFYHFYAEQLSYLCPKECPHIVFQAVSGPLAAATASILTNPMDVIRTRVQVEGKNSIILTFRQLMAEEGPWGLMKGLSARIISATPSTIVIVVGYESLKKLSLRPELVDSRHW
UniProt Q96K37: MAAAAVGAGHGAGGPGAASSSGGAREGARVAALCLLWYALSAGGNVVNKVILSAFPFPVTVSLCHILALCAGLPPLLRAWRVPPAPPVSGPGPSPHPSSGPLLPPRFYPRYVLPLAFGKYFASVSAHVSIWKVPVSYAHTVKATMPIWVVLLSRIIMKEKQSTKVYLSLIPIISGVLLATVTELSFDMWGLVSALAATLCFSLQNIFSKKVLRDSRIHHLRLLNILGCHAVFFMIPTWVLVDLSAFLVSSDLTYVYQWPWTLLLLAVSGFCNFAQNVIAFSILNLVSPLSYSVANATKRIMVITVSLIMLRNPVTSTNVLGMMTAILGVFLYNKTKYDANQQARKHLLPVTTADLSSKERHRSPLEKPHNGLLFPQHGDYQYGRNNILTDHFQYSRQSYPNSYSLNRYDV
UniProt O14975, whole entry, looked up: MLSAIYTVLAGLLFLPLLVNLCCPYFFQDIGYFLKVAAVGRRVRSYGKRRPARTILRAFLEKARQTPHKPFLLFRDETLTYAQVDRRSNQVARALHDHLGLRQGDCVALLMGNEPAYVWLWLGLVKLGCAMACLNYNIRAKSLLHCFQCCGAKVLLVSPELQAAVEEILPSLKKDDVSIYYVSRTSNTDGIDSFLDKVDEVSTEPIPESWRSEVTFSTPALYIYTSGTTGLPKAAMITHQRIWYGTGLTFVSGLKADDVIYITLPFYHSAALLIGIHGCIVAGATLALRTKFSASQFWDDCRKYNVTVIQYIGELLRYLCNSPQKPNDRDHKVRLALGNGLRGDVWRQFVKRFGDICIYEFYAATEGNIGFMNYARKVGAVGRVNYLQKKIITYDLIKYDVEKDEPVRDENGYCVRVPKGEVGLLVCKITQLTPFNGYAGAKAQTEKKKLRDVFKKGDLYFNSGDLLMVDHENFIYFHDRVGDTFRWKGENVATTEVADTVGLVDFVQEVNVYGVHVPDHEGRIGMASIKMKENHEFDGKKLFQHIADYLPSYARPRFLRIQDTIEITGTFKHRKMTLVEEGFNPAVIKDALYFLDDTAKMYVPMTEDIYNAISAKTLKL
UniProt P41440: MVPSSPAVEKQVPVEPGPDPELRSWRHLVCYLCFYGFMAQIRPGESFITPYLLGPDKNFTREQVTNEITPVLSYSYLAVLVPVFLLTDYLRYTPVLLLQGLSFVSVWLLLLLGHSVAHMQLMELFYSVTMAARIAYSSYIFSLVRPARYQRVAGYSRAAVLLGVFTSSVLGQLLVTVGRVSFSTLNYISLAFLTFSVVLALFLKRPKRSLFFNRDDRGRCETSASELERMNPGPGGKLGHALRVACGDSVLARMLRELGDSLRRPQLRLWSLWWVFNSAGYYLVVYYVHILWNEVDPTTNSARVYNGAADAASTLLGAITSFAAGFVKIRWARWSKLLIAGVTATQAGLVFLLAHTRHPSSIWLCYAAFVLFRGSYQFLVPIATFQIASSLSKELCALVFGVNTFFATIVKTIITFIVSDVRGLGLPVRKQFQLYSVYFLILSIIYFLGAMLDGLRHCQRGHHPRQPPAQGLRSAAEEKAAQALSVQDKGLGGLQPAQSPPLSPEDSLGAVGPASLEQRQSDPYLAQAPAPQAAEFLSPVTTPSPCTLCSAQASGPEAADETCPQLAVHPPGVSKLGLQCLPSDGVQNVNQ
UniProt Q86VD7: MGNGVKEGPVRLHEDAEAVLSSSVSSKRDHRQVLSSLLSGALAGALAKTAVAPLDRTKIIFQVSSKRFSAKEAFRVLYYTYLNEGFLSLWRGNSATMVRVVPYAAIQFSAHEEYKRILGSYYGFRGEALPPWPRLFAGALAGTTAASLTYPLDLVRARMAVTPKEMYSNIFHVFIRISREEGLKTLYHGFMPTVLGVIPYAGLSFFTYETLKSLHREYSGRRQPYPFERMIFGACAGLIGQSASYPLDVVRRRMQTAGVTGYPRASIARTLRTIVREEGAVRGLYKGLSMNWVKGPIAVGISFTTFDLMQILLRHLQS

Key:
Test in all cases: log2 fold change, soluble protein after heating vs DMSO (PISA); higher = thermal stabilisation; K562 cells, 10 uM, 30 min; active = over 0.2 and 3.5 SD of the protein, either way, in both replicates (recomputed)
[1] = compound: CN1CCN(CCOc2cc(OC3CCOCC3)c3c(Nc4c(Cl)ccc5c4OCO5)ncnc3c2)CC1 [saracatinib]
Summary of the method: (§1)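 Soluble protein was quantified by TMTpro 16plex LC-MS/MS after channel sums were equalised. It was obtained as the supernatant after 21,000xg for 90 min from pooled aliquots of K562 cells (2×10^6 cells/mL, 10 μM compound, 30 min) heated for 3 min across 48°C-58°C and extracted in PBS with 0.5% NP-40 at 4°C. Thermal stability values are relative to control samples and come from duplicates. They are given as log2 fold changes.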

[2] = compound: CN1CCN(c2nc(C3=C(c4c[nH]c5ccccc45)C(=O)NC3=O)c3ccccc3n2)CC1 [sotrastaurin]
Summary of the method: as §1

[3] = compound: CN1CCc2c(c3ccccc3n2Cc2ccc(C(=O)NO)cc2)C1 [Tubastatin A]
Summary of the method: as §1

[4] = compound: CNC(=O)C1=CC=CC=C1NC2=NC(=NC=C2Cl)NC3=C(C=C(C=C3)N4CCOCC4)OC
Summary of the method: as §1

[5] = compound: CNC(=O)c1ccc(Nc2ncc(C(F)(F)F)c(NCc3nccnc3N(C)S(C)(=O)=O)n2)cc1 [defactinib]
Summary of the method: as §1

[6] = compound: CNCc1ccc(-c2[nH]c3cc(F)cc4c3c2CCNC4=O)cc1 [rucaparib]
Summary of the method: as §1

[7] = compound: CNc1nc(-c2ccc3c(N)n[nH]c3c2)cc(N2C[C@@H](C(=O)NC3CCCCC3)CC[C@H]2C)n1
Summary of the method: as §1

[8] = compound: COC(=O)N[C@@H](C)CNc1nccc(-c2cn(C(C)C)nc2-c2cc(Cl)cc(NS(C)(=O)=O)c2F)n1 [encorafenib]
Summary of the method: as §1

[9] = compound: COC(=O)[C@H](CCSC)NC(=O)C1=C(C=C(C=C1)NC[C@H](CS)N)C2=CC=CC=C2
Summary of the method: as §1

[10] = compound: COC1=CC=C(C=C1)CN2C=CC3=C2C=C(C=C3)C(=O)NO
Summary of the method: as §1

[11] = compound: CON(C)C(=O)N1N=C(c2cc(F)ccc2F)S[C@@]1(CCCN)c1ccccc1 [filanesib]
Summary of the method: as §1

[12] = compound: CO[C@H]1C[C@@H]2CC[C@@H](C)[C@@](O)(O2)C(=O)C(=O)N2CCCC[C@H]2C(=O)O[C@H]([C@H](C)C[C@@H]2CC[C@H](n3cnnn3)[C@H](OC)C2)CC(=O)[C@H](C)/C=C(\C)[C@@H](O)[C@@H](OC)C(=O)[C@H](C)C[C@H](C)/C=C/C=C/C=C/1C [zotarolimus]
Summary of the method: as §1

[13] = compound: COc1cc(C(=O)O)ccc1NC(=O)[C@@H]1N[C@@H](CC(C)(C)C)[C@](C#N)(c2ccc(Cl)cc2F)[C@H]1c1cccc(Cl)c1F [idasanutlin]
Summary of the method: as §1

[14] = compound: COc1cc(Nc2ncc3c(n2)-c2ccc(Cl)cc2C(c2c(F)cccc2OC)=NC3)ccc1C(=O)O [alisertib]
Summary of the method: as §1

[15] = compound: COc1cc2nc(-c3cc(F)ccc3O)nc(N[C@@H]3CNC[C@H]3C(C)(C)O)c2cc1OC
Summary of the method: as §1

[16] = compound: COc1cc2ncnc(Nc3ccc(F)c(Cl)c3)c2cc1OCCCN1CCOCC1 [gefitinib]
Summary of the method: as §1

[17] = compound: COc1cccc2cc(-c3nc([C@H]4CC[C@H](C(=O)O)CC4)n4ncnc(N)c34)[nH]c12
Summary of the method: as §1

[18] = compound: CS(=O)(=O)CCNCc1ccc(-c2ccc3ncnc(Nc4ccc(OCc5cccc(F)c5)c(Cl)c4)c3c2)o1 [lapatinib]
Summary of the method: as §1

[19] = compound: CS(=O)(=O)N1CCN(Cc2cc3nc(-c4cccc5[nH]ncc45)nc(N4CCOCC4)c3s2)CC1 [pictilisib]
Summary of the method: as §1

[20] = compound: CN1CC[C@H](c2c(O)cc(O)c3c(=O)cc(-c4ccccc4Cl)oc23)[C@H](O)C1 [alvocidib]
Summary of the method: as §1

Row | Target | log2 fold change [1] | log2 fold change [2] | log2 fold change [3] | log2 fold change [4] | log2 fold change [5] | log2 fold change [6] | log2 fold change [7] | log2 fold change [8] | log2 fold change [9] | log2 fold change [10] | log2 fold change [11] | log2 fold change [12] | log2 fold change [13] | log2 fold change [14] | log2 fold change [15] | log2 fold change [16] | log2 fold change [17] | log2 fold change [18] | log2 fold change [19] | log2 fold change [20]
1 | SLC4A2 (UniProt P04920) | inactive: 0.003 | inactive: -0.029 | inactive: 0.066 | inactive: -0.006 | inactive: 0.028 | inactive: 0.064 | inactive: 0.008 | inactive: 0.085 | inactive: -0.067 | inactive: -0.088 | inactive: -0.041 | inactive: 0 | inactive: -0.002 | inactive: -0.016 | inactive: 0.051 | inactive: -0.081 | inactive: -0.003 | inactive: -0.023 | inactive: 0.128 | 
2 | SLC15A4 (UniProt Q8N697) | inactive: 0.058 |  | inactive: 0.022 | inactive: 0.022 | inactive: -0.008 | inactive: -0.053 | inactive: -0.027 | inactive: 0.011 | inactive: 0.009 | inactive: 0.072 |  | inactive: 0.085 | inactive: -0.068 | inactive: 0.028 | inactive: 0.052 | inactive: -0.002 | inactive: -0.056 | inactive: -0.006 |  | inactive: -0.075
3 | SLC27A4 (UniProt Q6P1M0) | inactive: -0.035 | inactive: 0.035 | inactive: -0.005 | inactive: -0.083 | inactive: -0.084 | inactive: 0.06 | inactive: 0.072 | inactive: 0.018 | inactive: -0.05 | inactive: 0.134 | inactive: 0.038 | inactive: 0.056 | inactive: -0.084 | inactive: -0.001 | inactive: 0.032 | inactive: 0.033 | inactive: -0.022 | inactive: 0.055 | inactive: -0.078 | 
4 | SLC12A9 (UniProt Q9BXP2) | inactive: 0.102 | inactive: 0.016 | inactive: -0.09 | inactive: -0.016 | inactive: -0.043 | inactive: -0.073 | inactive: -0.068 | inactive: -0.017 | inactive: -0.01 | inactive: -0.022 | inactive: -0.093 | inactive: 0.091 | inactive: 0.044 | inactive: -0.106 | inactive: 0.049 | inactive: -0.151 | inactive: 0.023 | inactive: 0.075 | inactive: -0.121 | 
5 | SLC39A11 (UniProt Q8N1S5) | inactive: 0.098 | inactive: 0.127 | inactive: -0.164 | inactive: -0.223 | inactive: 0.074 | active: -0.518 | inactive: -0.015 | inactive: -0.077 | inactive: -0.082 | inactive: -0.014 | inactive: -0.01 | inactive: -0.078 | inactive: -0.056 | inactive: -0.113 | inactive: -0.04 | inactive: 0.001 | inactive: 0.047 | inactive: -0.038 | inactive: -0.117 | 
6 | SLC25A44 (UniProt Q96H78) | inactive: 0.071 | inactive: -0.012 | inactive: 0 |  | inactive: 0.002 | inactive: -0.146 | inactive: -0.027 | inactive: 0.017 | inactive: -0.058 | inactive: -0.013 | inactive: 0.105 | inactive: -0.101 | inactive: 0.031 | inactive: -0.064 | inactive: 0.031 | inactive: -0.067 | inactive: 0.125 | inactive: -0.012 | inactive: 0.007 | inactive: 0.028
7 | SLC35E1 (UniProt Q96K37) | inactive: -0.042 |  | inactive: 0.001 | inactive: -0.056 | inactive: -0.01 | inactive: -0.066 | inactive: 0.027 | inactive: 0.115 | inactive: 0.049 | inactive: -0.49 |  | inactive: -0.011 | inactive: 0.027 | inactive: 0.01 | inactive: -0.034 | inactive: -0.008 | inactive: 0.119 | inactive: 0.059 | inactive: -0.096 | inactive: 0.057
8 | SLC27A2 (UniProt O14975) | inactive: 0 | inactive: 0.005 | inactive: -0.015 | inactive: 0.144 | inactive: -0.006 | inactive: 0.056 | active: 0.333 | inactive: 0.015 | inactive: -0.034 | inactive: 0.089 | inactive: -0.033 | inactive: 0.032 | inactive: 0.257 | inactive: -0.034 | inactive: 0.046 | inactive: 0.156 | inactive: -0.052 | inactive: 0.112 | inactive: 0.034 | 
9 | SLC19A1 (UniProt P41440) | inactive: 0.012 | inactive: -0.173 | inactive: -0.021 | inactive: -0.035 | inactive: -0.061 | inactive: -0.179 | inactive: -0.048 | inactive: 0.041 | inactive: -0.003 | inactive: 0.047 | inactive: -0.164 | inactive: -0.106 | inactive: 0.023 | inactive: -0.034 | inactive: 0.003 | inactive: 0 | inactive: 0.086 | inactive: -0.066 | inactive: -0.026 | 
10 | SLC25A42 (UniProt Q86VD7) | inactive: 0.105 | inactive: 0.023 | inactive: -0.032 | inactive: 0.005 | inactive: 0.101 | inactive: 0.021 | inactive: 0.035 | inactive: -0.067 | inactive: 0.083 | active: 0.241 | inactive: -0.011 | inactive: 0.058 | inactive: 0.047 | inactive: 0.012 | inactive: -0.029 | inactive: 0.063 | inactive: 0.043 | inactive: 0.084 | inactive: -0.003 | 
